Consider 39 targets from the supplement of paper PMC10849652.

Chains of the proteins cited; added tags and fusions are not shown. Lines headed by an entry give the natural chain unless they say otherwise; changes in a name come on top.
UniProt Q9BZK7: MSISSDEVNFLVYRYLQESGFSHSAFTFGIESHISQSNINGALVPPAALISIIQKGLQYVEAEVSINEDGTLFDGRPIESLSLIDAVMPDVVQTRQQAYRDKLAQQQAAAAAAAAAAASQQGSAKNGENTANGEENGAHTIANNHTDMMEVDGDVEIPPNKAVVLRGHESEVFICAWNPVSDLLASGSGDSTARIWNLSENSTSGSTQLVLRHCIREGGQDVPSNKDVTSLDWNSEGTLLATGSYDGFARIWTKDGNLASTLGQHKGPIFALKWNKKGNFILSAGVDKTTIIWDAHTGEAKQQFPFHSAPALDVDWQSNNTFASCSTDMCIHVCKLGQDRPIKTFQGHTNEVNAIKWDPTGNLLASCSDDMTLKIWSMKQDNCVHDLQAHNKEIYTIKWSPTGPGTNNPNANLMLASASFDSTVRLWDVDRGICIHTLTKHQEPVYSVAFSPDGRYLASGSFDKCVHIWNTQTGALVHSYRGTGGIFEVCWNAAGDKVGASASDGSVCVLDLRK
UniProt Q4KMP7: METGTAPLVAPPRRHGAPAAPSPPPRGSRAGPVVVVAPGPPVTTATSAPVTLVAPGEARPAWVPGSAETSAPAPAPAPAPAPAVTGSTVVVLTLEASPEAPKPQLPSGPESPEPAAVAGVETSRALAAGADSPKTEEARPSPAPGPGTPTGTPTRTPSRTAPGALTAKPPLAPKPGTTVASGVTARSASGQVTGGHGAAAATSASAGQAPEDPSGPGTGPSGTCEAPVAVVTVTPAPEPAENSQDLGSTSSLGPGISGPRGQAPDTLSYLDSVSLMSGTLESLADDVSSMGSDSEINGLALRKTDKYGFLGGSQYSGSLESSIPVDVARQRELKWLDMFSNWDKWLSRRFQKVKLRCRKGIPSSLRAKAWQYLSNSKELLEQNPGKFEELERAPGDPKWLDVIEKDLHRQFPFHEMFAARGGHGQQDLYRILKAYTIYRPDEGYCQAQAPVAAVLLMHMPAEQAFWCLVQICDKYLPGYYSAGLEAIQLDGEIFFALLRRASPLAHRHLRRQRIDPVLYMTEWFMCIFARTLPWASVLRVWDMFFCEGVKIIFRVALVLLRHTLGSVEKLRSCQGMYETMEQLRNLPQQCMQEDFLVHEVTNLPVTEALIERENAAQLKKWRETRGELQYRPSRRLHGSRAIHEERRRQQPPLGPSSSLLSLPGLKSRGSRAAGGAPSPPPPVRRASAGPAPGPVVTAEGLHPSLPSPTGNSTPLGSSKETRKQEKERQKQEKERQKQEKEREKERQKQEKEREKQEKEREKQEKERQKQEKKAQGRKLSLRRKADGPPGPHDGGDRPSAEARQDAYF
UniProt Q99081: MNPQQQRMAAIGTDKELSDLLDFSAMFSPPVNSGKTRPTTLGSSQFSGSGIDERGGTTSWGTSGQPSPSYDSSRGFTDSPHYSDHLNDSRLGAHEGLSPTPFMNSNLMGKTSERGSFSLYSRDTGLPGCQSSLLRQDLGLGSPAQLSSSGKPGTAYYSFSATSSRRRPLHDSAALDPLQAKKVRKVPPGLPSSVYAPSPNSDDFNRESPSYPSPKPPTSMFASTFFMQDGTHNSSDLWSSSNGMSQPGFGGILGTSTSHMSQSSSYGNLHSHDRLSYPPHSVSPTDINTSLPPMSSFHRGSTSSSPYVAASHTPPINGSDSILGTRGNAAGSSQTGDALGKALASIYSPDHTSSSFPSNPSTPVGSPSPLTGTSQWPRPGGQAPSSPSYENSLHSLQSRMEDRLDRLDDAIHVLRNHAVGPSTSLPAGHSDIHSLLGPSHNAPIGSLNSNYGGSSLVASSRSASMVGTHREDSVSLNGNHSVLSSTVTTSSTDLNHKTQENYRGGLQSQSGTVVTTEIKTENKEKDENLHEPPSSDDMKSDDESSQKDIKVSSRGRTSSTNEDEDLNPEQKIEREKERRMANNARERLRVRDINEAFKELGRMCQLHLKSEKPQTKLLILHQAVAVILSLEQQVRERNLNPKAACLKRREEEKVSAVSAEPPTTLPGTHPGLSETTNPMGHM
UniProt P15884: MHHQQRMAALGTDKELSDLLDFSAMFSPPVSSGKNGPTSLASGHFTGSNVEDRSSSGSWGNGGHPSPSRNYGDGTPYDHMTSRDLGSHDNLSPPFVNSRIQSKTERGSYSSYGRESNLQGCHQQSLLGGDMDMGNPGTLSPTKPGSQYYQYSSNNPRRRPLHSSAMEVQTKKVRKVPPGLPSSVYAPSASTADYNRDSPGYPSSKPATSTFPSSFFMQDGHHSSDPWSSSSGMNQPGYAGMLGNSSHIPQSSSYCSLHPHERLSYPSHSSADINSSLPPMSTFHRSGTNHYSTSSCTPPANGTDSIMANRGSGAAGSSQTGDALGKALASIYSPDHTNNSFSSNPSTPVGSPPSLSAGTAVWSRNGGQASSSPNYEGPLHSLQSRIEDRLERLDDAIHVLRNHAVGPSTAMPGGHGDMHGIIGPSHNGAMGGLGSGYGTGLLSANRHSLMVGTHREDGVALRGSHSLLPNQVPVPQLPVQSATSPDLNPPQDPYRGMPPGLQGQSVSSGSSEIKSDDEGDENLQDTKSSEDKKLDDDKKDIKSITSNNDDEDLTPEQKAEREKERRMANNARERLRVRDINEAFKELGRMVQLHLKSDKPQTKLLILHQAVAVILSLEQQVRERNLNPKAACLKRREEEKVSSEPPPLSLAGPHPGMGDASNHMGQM
UniProt Q13569: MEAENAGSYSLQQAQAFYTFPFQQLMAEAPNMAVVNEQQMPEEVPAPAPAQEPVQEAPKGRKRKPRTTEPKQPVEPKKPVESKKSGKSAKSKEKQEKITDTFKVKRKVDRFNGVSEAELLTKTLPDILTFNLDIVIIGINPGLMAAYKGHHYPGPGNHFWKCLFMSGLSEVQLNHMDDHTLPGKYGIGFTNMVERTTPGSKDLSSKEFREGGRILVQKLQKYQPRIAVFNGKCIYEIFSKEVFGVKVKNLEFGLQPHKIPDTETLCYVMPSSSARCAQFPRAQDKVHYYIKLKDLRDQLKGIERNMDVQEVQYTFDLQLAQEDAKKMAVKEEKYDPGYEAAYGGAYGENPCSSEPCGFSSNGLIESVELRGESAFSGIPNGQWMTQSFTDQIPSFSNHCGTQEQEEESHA
UniProt O75347: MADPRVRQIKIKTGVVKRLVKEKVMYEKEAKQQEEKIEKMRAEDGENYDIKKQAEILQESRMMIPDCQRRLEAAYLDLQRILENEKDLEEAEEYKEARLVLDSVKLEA
UniProt Q9BXI6: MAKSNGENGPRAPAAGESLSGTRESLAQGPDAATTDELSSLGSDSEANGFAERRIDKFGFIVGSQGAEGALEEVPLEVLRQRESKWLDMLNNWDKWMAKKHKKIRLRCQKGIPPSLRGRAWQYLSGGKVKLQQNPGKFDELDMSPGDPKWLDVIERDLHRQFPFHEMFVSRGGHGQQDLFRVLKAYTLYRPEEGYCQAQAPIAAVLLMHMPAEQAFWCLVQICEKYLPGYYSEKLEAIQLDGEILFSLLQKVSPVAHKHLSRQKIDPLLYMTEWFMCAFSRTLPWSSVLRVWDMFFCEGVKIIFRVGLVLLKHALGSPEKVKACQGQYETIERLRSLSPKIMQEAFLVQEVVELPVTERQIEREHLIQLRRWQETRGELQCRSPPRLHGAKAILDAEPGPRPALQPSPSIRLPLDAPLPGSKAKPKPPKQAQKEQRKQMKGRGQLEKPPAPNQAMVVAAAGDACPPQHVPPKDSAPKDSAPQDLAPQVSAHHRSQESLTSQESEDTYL
UniProt Q9H2K8: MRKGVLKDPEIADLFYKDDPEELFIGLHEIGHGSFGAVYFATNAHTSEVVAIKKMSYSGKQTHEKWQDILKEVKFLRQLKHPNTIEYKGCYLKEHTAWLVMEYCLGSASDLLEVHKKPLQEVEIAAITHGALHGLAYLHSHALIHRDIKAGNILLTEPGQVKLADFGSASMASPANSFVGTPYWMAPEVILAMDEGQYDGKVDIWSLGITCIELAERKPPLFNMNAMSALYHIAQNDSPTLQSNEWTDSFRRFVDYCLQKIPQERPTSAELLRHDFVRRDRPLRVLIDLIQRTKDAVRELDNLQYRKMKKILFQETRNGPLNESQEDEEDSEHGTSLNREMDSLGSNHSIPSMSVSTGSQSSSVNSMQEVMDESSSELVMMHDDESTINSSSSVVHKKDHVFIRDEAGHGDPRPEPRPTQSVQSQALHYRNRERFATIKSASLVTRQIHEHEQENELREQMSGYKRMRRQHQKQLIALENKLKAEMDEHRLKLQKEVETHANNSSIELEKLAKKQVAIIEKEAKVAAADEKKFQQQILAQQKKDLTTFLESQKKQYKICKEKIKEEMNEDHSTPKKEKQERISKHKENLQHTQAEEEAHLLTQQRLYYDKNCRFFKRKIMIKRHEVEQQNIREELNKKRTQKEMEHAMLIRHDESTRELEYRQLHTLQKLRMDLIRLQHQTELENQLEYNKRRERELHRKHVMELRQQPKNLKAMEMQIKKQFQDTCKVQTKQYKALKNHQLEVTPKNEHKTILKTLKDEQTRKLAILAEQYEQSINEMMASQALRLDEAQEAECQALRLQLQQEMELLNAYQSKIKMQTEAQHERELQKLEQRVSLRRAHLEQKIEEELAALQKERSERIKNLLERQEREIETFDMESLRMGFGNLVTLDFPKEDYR
UniProt Q8NHU6: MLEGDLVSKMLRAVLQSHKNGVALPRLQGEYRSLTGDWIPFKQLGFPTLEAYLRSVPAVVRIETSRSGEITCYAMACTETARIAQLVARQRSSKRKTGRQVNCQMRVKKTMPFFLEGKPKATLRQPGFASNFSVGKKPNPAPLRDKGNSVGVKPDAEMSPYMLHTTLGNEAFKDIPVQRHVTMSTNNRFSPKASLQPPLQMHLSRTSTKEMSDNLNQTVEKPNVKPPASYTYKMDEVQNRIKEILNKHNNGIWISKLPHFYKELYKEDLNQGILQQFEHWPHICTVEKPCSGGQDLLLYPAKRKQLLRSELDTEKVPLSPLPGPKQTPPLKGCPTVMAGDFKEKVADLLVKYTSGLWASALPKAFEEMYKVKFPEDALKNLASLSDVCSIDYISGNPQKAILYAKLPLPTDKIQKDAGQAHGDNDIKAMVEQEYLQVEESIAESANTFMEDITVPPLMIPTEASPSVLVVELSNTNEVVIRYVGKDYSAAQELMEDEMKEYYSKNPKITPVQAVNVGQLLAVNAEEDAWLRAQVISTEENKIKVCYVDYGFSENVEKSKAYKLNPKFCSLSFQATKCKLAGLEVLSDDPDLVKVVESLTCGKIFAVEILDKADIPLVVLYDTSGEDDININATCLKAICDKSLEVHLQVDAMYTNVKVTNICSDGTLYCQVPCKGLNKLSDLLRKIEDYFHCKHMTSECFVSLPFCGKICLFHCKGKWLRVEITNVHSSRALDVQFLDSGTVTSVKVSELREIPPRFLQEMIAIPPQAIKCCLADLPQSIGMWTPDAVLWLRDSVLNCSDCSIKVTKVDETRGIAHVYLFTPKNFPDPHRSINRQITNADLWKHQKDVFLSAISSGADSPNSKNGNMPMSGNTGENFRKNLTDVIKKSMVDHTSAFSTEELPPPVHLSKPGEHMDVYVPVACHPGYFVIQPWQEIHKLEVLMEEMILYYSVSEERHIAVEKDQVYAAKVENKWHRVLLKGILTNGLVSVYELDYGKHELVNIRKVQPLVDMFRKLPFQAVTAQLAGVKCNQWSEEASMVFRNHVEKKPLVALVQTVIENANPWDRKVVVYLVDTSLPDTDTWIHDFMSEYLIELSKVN
UniProt P02787, whole entry, looked up: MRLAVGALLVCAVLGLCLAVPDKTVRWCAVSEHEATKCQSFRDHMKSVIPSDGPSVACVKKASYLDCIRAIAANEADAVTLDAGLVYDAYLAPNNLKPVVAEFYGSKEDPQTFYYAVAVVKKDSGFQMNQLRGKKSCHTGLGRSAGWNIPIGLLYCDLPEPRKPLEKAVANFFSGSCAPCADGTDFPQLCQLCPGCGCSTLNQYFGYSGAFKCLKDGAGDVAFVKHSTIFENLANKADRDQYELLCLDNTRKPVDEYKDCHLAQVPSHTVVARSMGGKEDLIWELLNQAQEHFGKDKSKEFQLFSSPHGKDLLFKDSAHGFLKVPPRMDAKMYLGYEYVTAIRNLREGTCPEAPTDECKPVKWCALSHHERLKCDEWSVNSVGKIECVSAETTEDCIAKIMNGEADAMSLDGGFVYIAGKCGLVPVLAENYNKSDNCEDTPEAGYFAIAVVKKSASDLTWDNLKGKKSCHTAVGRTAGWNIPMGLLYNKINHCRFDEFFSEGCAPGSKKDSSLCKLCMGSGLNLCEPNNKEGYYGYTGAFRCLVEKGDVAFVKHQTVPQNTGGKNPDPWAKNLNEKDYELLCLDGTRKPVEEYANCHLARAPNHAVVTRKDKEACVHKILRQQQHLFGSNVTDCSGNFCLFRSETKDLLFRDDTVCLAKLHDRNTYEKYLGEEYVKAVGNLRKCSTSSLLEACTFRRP
UniProt P37802: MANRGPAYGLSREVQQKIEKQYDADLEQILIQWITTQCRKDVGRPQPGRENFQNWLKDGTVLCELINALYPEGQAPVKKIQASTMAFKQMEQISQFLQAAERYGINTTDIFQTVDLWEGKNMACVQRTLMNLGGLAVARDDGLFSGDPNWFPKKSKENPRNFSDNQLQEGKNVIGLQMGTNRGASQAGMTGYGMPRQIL

The other results are listed elsewhere or left out.

Compound in one experiment: Cc1cn(-c2cc(NC(=O)c3ccc(C)c(Nc4nccc(-c5cccnc5)n4)c3)cc(C(F)(F)F)c2)cn1 [nilotinib]
Kind of experiment: log2 fold change, soluble protein after heating vs DMSO (PISA); higher = thermal stabilisation; K562 lysate, 10 uM; active = over 0.2 and 3.5 SD of the protein, either way, in both replicates (recomputed). In outline: (§1)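 K562 pellets were dounce-homogenised in PBS pH 7.4 containing 1 mM MgCl2, and the crude extract, at 1 mg/mL protein, was exposed to 10 μM compound for 30 min. Aliquots were heated for 3 min across 48°C-58°C, pooled, brought to 0.5% NP-40 at 4°C and spun at 21,000xg for 90 min, with the supernatant taken as soluble protein. TMTpro 16plex LC-MS/MS with equalised channel sums quantified that protein. Values are log-two fold changes in thermal stability relative to solvent controls, taken from duplicates.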
In the case of TBL1XR1 (UniProt Q9BZK7), the log2 fold change is inactive: 0.087.
The same measure, in the same setting: in the case of TANGO6 (UniProt Q9C0B7) it was inactive: 0.042; in that of TDP1 (UniProt Q9NUW8), inactive: -0.061.
As to TAOK2 (UniProt Q9UL54), the log2 fold change is inactive: 0.033.
In the case of TBC1D10B (UniProt Q4KMP7), the log2 fold change was inactive: -0.042.
TCF12 isoform 3 (UniProt Q99081): the log2 fold change was inactive: -0.031.
Same read-out and setting: the same measure for TCOF1 isoform 6 (UniProt Q13428): inactive: -0.03; for TCF4 (UniProt P15884): inactive: -0.004.
As for TDG (UniProt Q13569), the log2 fold change is inactive: -0.128.
For TBCA (UniProt O75347), the log2 fold change was inactive: 0.006.
Regarding TBC1D10A (UniProt Q9BXI6), the log2 fold change was inactive: -0.056.
With TAOK3 (UniProt Q9H2K8), the log2 fold change is inactive: -0.025.
For the target TFB2M (UniProt Q9H5Q4), the log2 fold change was inactive: -0.012.
With TDRD7 (UniProt Q8NHU6), the log2 fold change is inactive: -0.005.
Still for that read-out and setting: the same measure for TF (UniProt P02787): inactive: -0.146; for TERF2 (UniProt Q15554): inactive: 0.089.

Compound in a further experiment: Cc1nc(Nc2n[nH]c3c2CN(C(=O)N[C@H](CN(C)C)c2ccccc2)C3(C)C)c2sccc2n1
The description is as above. An outline of the steps: as §1
Take TCAF1 (UniProt Q9Y4C2): the log2 fold change was inactive: 0.017.
The same measure, in the same setting: in the case of TARS1 (UniProt P26639) it was inactive: 0.017.
Regarding TEX30 (UniProt Q5JUR7), the log2 fold change is inactive: 0.072.
The same measure, in the same setting: in the case of TATDN3 isoform 3 (UniProt Q17R31) it was inactive: -0.004; in that of TAGLN2 isoform 2 (UniProt P37802), inactive: -0.025; in that of TAF6L (UniProt Q9Y6J9), inactive: 0.012.
The same measure, in the same setting: in the case of TATDN1 (UniProt Q6P1N9) it was inactive: -0.004; in that of TAOK1 (UniProt Q7L7X3), inactive: 0.015; in that of TBCB (UniProt Q99426), inactive: -0.045.
In the case of TFCP2 (UniProt Q12800), the log2 fold change was inactive: 0.023.
On to TBL3 (UniProt Q12788), for which the log2 fold change was inactive: 0.025.
Regarding TARBP2 (UniProt Q15633), the log2 fold change is inactive: 0.019.
Same read-out and setting: the same measure for TFIP11 (UniProt Q9UBB9): inactive: 0.003.
As for TBCE (UniProt Q15813), the log2 fold change is inactive: -0.008.
In the case of TBC1D14 (UniProt Q9P2M4), the log2 fold change is inactive: 0.047.
Same read-out and setting: in the case of TFG (UniProt Q92734) it was inactive: 0.02.
In the case of TCERG1 (UniProt O14776), the log2 fold change is inactive: -0.017.
Still for that read-out and setting: in the case of TDRD3 isoform 3 (UniProt Q9H7E2) it was inactive: -0.04; in that of TFR2 (UniProt Q9UP52), inactive: -0.019; in that of TBC1D23 (UniProt Q9NUY8), inactive: -0.018.
Regarding TEX10 (UniProt Q9NXF1), the log2 fold change is inactive: -0.049.
Same read-out and setting: the same measure for TBC1D2 (UniProt Q9BYX2): inactive: -0.024; for TAF7 (UniProt Q15545): inactive: -0.009; for TBL1XR1 (UniProt Q9BZK7): inactive: 0.028.
As for TANGO6 (UniProt Q9C0B7), the log2 fold change is inactive: -0.056.
Same read-out and setting: in the case of TDP1 (UniProt Q9NUW8) it was inactive: 0.073.
Turning to TAOK2 (UniProt Q9UL54), the log2 fold change was inactive: -0.069.
Regarding TBC1D10B (UniProt Q4KMP7), the log2 fold change is inactive: 0.019.
Same read-out and setting: the same measure for TCF12 isoform 3 (UniProt Q99081): inactive: 0.016.
Turning to TCOF1 isoform 6 (UniProt Q13428), the log2 fold change is inactive: 0.167.
Still for that read-out and setting: the same measure for TCF4 (UniProt P15884): inactive: -0.139; for TDG (UniProt Q13569): inactive: 0.006.
Regarding TBCA (UniProt O75347), the log2 fold change was inactive: -0.022.
Still for that read-out and setting: in the case of TBC1D10A (UniProt Q9BXI6) it was inactive: -0.01; in that of TAOK3 (UniProt Q9H2K8), inactive: 0.019.
Regarding TFB2M (UniProt Q9H5Q4), the log2 fold change was inactive: -0.024.
Still for that read-out and setting: in the case of TDRD7 (UniProt Q8NHU6) it was inactive: -0.038; in that of TF (UniProt P02787), inactive: -0.069.
The same measure, in the same setting: the same measure for TERF2 (UniProt Q15554): inactive: 0.021.

Compound in a further experiment: Cc1nc(Nc2ncc(C(=O)Nc3c(C)cccc3Cl)s2)cc(N2CCN(CCO)CC2)n1 [dasatinib]
The experiment is described as above. In outline:
as §1
For TCAF1 (UniProt Q9Y4C2), the log2 fold change was inactive: -0.004.
Still for that read-out and setting: the same measure for TARS1 (UniProt P26639): inactive: 0.024; for TEX30 (UniProt Q5JUR7): inactive: -0.109; for TATDN3 isoform 3 (UniProt Q17R31): inactive: -0.065.
Same read-out and setting: the same measure for TAGLN2 isoform 2 (UniProt P37802): inactive: 0.024; for TAF6L (UniProt Q9Y6J9): inactive: -0.118; for TATDN1 (UniProt Q6P1N9): inactive: 0.037.
Still for that read-out and setting: the same measure for TAOK1 (UniProt Q7L7X3): inactive: -0.035.
For TBCB (UniProt Q99426), the log2 fold change is inactive: 0.014.
As to TFCP2 (UniProt Q12800), the log2 fold change was inactive: -0.015.
Still for that read-out and setting: the same measure for TBL3 (UniProt Q12788): inactive: -0.013.
As for TARBP2 (UniProt Q15633), the log2 fold change was inactive: -0.038.
Same read-out and setting: the same measure for TFIP11 (UniProt Q9UBB9): inactive: -0.059; for TBCE (UniProt Q15813): inactive: -0.012.
On the same count and under the same terms, in the case of TBC1D14 (UniProt Q9P2M4) it was inactive: -0.042.
On the same count and under the same terms, the same measure for TFG (UniProt Q92734): inactive: 0.041; for TCERG1 (UniProt O14776): inactive: -0.049.
As to TDRD3 isoform 3 (UniProt Q9H7E2), the log2 fold change was inactive: 0.033.
On the same count and under the same terms, in the case of TFR2 (UniProt Q9UP52) it was inactive: 0.009.
On the same count and under the same terms, the same measure for TBC1D23 (UniProt Q9NUY8): inactive: -0.001; for TEX10 (UniProt Q9NXF1): inactive: -0.14; for TBC1D2 (UniProt Q9BYX2): inactive: 0.027.
With TAF7 (UniProt Q15545), the log2 fold change is inactive: -0.001.
On to TBL1XR1 (UniProt Q9BZK7), for which the log2 fold change is inactive: -0.043.
Still for that read-out and setting: in the case of TANGO6 (UniProt Q9C0B7) it was inactive: -0.006; in that of TDP1 (UniProt Q9NUW8), inactive: 0.076.
Same read-out and setting: in the case of TAOK2 (UniProt Q9UL54) it was inactive: -0.231; in that of TBC1D10B (UniProt Q4KMP7), inactive: -0.028.
Same read-out and setting: in the case of TCF12 isoform 3 (UniProt Q99081) it was inactive: 0; in that of TCOF1 isoform 6 (UniProt Q13428), inactive: 0.134.
With TCF4 (UniProt P15884), the log2 fold change is inactive: 0.077.
TDG (UniProt Q13569): the log2 fold change is inactive: -0.04.
As for TBCA (UniProt O75347), the log2 fold change was inactive: 0.005.
Still for that read-out and setting: in the case of TBC1D10A (UniProt Q9BXI6) it was inactive: -0.089; in that of TAOK3 (UniProt Q9H2K8), inactive: -0.012; in that of TFB2M (UniProt Q9H5Q4), inactive: -0.028.
The same measure, in the same setting: the same measure for TDRD7 (UniProt Q8NHU6): inactive: 0.006; for TF (UniProt P02787): inactive: 0.02; for TERF2 (UniProt Q15554): inactive: -0.03.
